Results reported in PMC10089821.
No constants are given. Whether binding was seen depends on the method and setting. Binding seen in cells or lysates may run through a third protein.

The chains behind the UniProt entries cited, without tags or fusion partners.
UniProt P40763: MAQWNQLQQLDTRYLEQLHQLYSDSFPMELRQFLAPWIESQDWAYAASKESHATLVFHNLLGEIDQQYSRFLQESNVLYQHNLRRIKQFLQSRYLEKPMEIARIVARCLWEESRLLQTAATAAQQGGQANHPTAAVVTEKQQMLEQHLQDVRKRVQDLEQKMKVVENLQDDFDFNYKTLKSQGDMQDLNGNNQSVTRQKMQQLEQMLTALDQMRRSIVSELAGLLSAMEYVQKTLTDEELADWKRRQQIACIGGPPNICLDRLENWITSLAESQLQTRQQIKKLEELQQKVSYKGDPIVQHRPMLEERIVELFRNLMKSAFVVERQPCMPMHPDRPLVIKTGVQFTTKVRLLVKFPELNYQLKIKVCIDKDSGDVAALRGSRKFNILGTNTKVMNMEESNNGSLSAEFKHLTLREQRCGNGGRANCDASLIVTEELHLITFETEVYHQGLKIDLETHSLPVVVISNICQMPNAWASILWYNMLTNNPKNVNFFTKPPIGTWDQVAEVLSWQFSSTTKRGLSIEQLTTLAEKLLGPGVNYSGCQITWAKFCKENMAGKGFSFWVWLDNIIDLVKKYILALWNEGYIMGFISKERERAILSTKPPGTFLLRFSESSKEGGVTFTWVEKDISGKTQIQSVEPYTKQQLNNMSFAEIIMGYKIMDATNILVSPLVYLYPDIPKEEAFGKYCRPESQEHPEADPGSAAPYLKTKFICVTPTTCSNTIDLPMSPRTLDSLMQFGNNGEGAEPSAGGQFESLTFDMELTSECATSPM

Target: T1, ETV7 (UniProt Q9Y603)
T1 sequence: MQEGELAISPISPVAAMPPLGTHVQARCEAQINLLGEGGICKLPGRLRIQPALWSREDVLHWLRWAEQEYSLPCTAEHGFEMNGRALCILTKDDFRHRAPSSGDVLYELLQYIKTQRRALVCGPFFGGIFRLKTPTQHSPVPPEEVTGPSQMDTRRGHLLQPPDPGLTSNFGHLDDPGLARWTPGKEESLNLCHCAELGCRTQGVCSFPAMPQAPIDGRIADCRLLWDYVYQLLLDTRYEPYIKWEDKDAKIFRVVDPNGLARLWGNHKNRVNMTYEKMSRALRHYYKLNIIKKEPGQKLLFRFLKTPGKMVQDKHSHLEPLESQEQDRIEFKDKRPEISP
Test: co-IP; MCF7-Empty/ETV7 or T47D-Empty/ETV7 cells treated with 20 ng/ml IL-6 for 4 h, lysed in CHAPS buffer; incubated overnight with anti-ETV7 antibody (TEL2) or normal mouse IgG bound to protein G Dynabeads; Western blot for phosphorylated STAT3

- binding: no binding
Substance: phosphorylated STAT3 (from UniProt P40763 1-770)
